Assay results from PubChem BioAssay AID2551 (National Center for Advancing Translational Sciences (NCATS), 2010).
Where “and” joins values, the source holds several entries; their conditions need not be identical. Equal values may be shown once. About 17,000 (5.5%) of roughly 310,000 compounds were called active. Inconclusive means that the source gave no clear call. Such entries were picked first, then a sample of the others. Calls come from the whole dose curve; as a rule, active = well fitted inhibition curve with a large enough effect; inconclusive = small, poorly fitted or top-dose-only effect, or effect the other way; inactive = no such curve, though single readings can be large or run the other way. A potency beside an inconclusive call is a rough fit, not a confirmed value.

Chains of the proteins cited; added tags and fusions are not shown. Lines headed by an entry give the natural chain unless they say otherwise; changes in a name come on top.
UniProt P51450: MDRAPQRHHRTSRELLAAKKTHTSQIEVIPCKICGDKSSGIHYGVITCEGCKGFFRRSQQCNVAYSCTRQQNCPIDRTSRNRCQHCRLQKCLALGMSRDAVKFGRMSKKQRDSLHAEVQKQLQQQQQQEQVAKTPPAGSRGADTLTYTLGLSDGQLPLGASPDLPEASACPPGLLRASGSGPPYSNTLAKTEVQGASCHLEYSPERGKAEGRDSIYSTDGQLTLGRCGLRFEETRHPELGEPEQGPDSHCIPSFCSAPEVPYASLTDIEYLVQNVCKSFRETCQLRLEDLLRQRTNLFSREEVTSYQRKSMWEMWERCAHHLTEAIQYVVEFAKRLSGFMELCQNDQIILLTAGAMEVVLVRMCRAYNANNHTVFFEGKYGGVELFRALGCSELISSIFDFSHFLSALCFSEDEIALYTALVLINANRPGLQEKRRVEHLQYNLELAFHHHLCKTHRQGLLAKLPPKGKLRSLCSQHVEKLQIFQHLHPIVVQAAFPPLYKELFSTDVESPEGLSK

What follows are molecules tested against Nuclear receptor ROR-gamma (Mus musculus) (UniProt P51450) (assay: qHTS for inhibitors of ROR gamma transcriptional activity). Conditions: Drosophila S2 Gal4-RORgamma UAS-luciferase reporter, 20 h; activity change, negative = inhibition: at 53.6 µM (top of the series).
Method in brief: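 Luciferase reporter read in Schneider cells carrying Gal4-RORγ (mouse) and UAS-Photinus luciferase; cells given compound 1 h before 700 uM copper sulfate induction, then incubated 20 h at ambient temperature.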
% is set by controls: 0 for no effect and ±100 for the full control effect; potency is the fitted concentration of half-maximal effect.
Note: nearly all actives have a fitted effect of over 60% in size.

| SMILES | activity change, negative = inhibition | Potency |
| --- | --- | --- |
| CN(C)c1ccc(/C=C2/C(=O)NC(=O)N(Cc3ccco3)C2=O)cc1 | inactive: 12.7% [at 10 µM] |  |
| Cc1cc(O)c2c3c(c(=O)oc2c1)CCC(C)C3 (centres undefined) |  | inconclusive: 3.16 µM [activator, partial curve] |
| CC(C)(C)OO |  | inactive |
| COc1ccc(/C=C2\C(=O)NC(=O)N(Cc3ccccc3)C2=O)c(OC)c1OC |  | inactive |
| CC(c1nc2ccccc2c(=O)[nH]1)N(C)CCOc1ccc(Cl)cc1 (centres undefined) |  | active: 7.08 µM |
| CC(C)(Cc1c[nH]c2ccc(Cl)cc12)NCCOc1ccccc1OCC1CC1 |  | active: 12.6 µM |
| CON(C)C(=O)Nc1ccc(Br)cc1 |  | inactive |
| CCCCOP(=O)(c1ccc(N(C)C)cc1)C(Nc1ccccc1)c1ccccc1 (centres undefined) |  | inconclusive: 31.6 µM [activator, single point] |
| N#CC(C#N)=Cc1ccc(O)cc1 |  | inconclusive: 17.8 µM [inhibitor, single point] and inconclusive: 35.5 µM [inhibitor, single point] |
| CN(C)c1ccc(P(=O)(Nc2ccc([N+](=O)[O-])cc2)N2CCOCC2)c(NC(=O)c2cccs2)c1 (centres undefined) |  | inconclusive: 35.5 µM [activator, single point] |
| Cc1nn(Cc2ccccc2Cl)c(C)c1C(=O)OCC(=O)NC1CCCC(C)C1C (centres undefined) |  | inactive |
| CC(C)OC(=O)c1c(N)n(Cc2ccco2)c2nc3ccccc3nc12 |  | inactive |
| COC(=O)[C@@H]1C[C@H]1[C@@H](NP(=O)(c1ccccc1)c1ccccc1)c1ccccc1 |  | active: 10 µM |
| COC(=O)C1C(=O)C=C(Nc2ccc(F)cc2F)CC1c1ccccc1 (centres undefined) |  | inconclusive: 12.6 µM [activator, single point] |
| COc1cccc2c1C(=O)c1c(O)c3c(c(O)c1C2=O)C[C@@](O)(C(=O)CO)C[C@@H]3O[C@H]1C[C@H](N)[C@H](OC2CCCCO2)[C@H](C)O1 (some centres undefined) |  | inconclusive: 20 µM [inhibitor, partial curve] |
| COc1ccc(/C=C2/C(=O)NC(=O)N(C3CCCCC3)C2=O)cc1CSc1ccccn1 |  | inactive |
| COc1cccc(CNCCc2ccc(F)cc2)c1 |  | inactive |
| CCC1(C)Cc2ccccc2-c2c1c(=O)n(Cc1ccccc1)c1nnnn21 (centres undefined) |  | inconclusive: 6.31 µM [activator, partial curve, poor fit] |
| C/C(=N\NC(=O)c1ccccc1Cl)c1c(O)n(C2CCCCC2)c(=O)[nH]c1=O |  | active: 7.08 µM |
| Cc1ccc(-n2c(-c3cccs3)nc3ccccc3c2=O)cc1 |  | inactive |
| CC1=CC(=C2C(=O)NC(=S)NC2=O)C=C(C(F)(F)F)N1Cc1ccccc1 |  | inconclusive: 15.8 µM [activator, single point] |
| CC[C@@]1(O)C(=O)OCc2c1cc1n(c2=O)Cc2cc3c(N)cccc3nc2-1 |  | active: 0.02 µM |
| O=[N+]([O-])c1ccc2nc(CCCc3nc4ccc([N+](=O)[O-])cc4[nH]3)[nH]c2c1 |  | inconclusive: 17.8 µM [activator, single point] |

| SMILES | activity change, negative = inhibition | Potency |
| --- | --- | --- |
| CCNC(=S)NCCC1=c2ccccc2=N/C1=C\c1c(O)n(C)c(=O)n(C)c1=O |  | inconclusive: 5.62 µM [activator, single point] |
| O=C(c1cc2ccccn2n1)N1CCN(Cc2ccccc2)CC1 |  | inconclusive: 1.78 µM [activator, full curve, poor fit] |
| O=C1NC(=O)C(CCc2ccccn2)(Cc2ccc3c(c2)OCO3)C(=O)N1CCc1ccccc1 (centres undefined) |  | inconclusive: 35.5 µM [inhibitor, single point] |
| COc1ccc(CN2CCN(c3ccccc3F)CC2)c(OC)c1 |  | inactive |
| COc1ccc(C2=NCc3nnc(C)n3-c3ccc(Cl)cc32)cc1Cl |  | inconclusive: 6.31 µM [inhibitor, single point] |
| COc1ccc2c(c[n+](C)c3c4cc5c(cc4ccc23)OCO5)c1OC |  | active: 3.98 µM and active: 7.08 µM |
| Ic1c(C2=CCCCC2)[se]c2ccccc12 |  | inactive |
| COC(=O)c1ccc(N2C(=O)CC(N3CCC(O)(c4ccc(Br)cc4)CC3)C2=O)cc1 (centres undefined) |  | inconclusive: 35.5 µM [inhibitor, single point] |
| O=C1C[C@@H](c2ccc(O)cc2)Oc2cc(O)cc(O)c21 |  | inactive |
| Cc1cccc(CCNCc2cc3cccc(C)c3[nH]c2=O)c1 |  | inconclusive: 3.55 µM [activator, partial curve] |
| CCOC(=O)C(O)(c1ccc(N(CC)S(=O)(=O)c2ccc(C)cc2)cc1)C(F)(F)F (centres undefined) |  | inconclusive: 14.1 µM [inhibitor, partial curve] |
| NC(N)=NN=C(/C=C/c1ccc([N+](=O)[O-])o1)/C=C/c1ccc([N+](=O)[O-])o1 |  | active: 5.01 µM |
| CN(C)c1ccc(NC(=O)Oc2ccccc2)cc1 |  | inconclusive: 0.224 µM [activator, full curve, poor fit] |
| COc1ccc(N(CC(=O)Nc2cc(OC)ccc2OC)S(C)(=O)=O)cc1 |  | inconclusive: 2.24 µM [activator, full curve] |
| O=C(Nc1ccc(Oc2ccc(Cl)cc2)c(Cl)c1)c1cc(I)cc(I)c1O |  | inconclusive: 22.4 µM [inhibitor, single point] and inconclusive: 35.5 µM [inhibitor, single point] |
| COC(=O)c1ccc(COc2cc(C)cc3oc(=O)c4c(c23)CCCC4)o1 |  | inconclusive: 12.6 µM [activator, partial curve] |
| CNC(=S)N1CC2CC(C1)c1cccc(=O)n1C2 (centres undefined) |  | inactive |
| CCCCn1c(=O)c(C(=O)Nc2ccccc2C)c(O)c2ccccc21 |  | inconclusive: 17.8 µM [inhibitor, single point] |
| COc1ccc2nc(NC3=NCCN3)sc2c1 |  | inconclusive: 22.4 µM [inhibitor, single point] |
| Cn1c(C(=O)N2CCC3(CC2)OCCO3)cc2c(=O)n(C)c3ccccc3c21 |  | inactive |
| COC(C(=O)C(O)C(C)O)C1Cc2cc3cc(OC4CC(OC5CC(O)C(OC)C(C)O5)C(OC(C)=O)C(C)O4)c(C)c(O)c3c(O)c2C(=O)C1OC1CC(OC2CC(OC3CC(C)(O)C(OC(C)=O)C(C)O3)C(O)C(C)O2)C(O)C(C)O1 (centres undefined) |  | active: 1.26 µM |
| CCCCCCCCCCCCn1ccc(=N)cc1 |  | inconclusive: 7.94 µM [inhibitor, partial curve, poor fit] |
| COc1ccc(-n2nc(C(=O)NCC(=O)N3CCC4(CC3)OCCO4)c3ccccc3c2=O)cc1Cl |  | inactive |

| SMILES | activity change, negative = inhibition | Potency |
| --- | --- | --- |
| Cc1cc(CN(C)C)c(OC(=O)N(C)C)cc1C |  | inconclusive: 5.62 µM [inhibitor, single point] |
| CCCCn1c(O)c(C(CC)=Nc2ccc(OC)cc2OC)c(=O)[nH]c1=O |  | inconclusive: 20 µM [activator, single point] |
| CC(=O)c1ccc(OC(=O)N(C)c2ccccc2)cc1 |  | inconclusive: 35.5 µM [activator, single point] |
| O=C(Oc1ccc(Br)cc1)C1CC(=O)N(c2ccc(F)cc2)C1 (centres undefined) |  | inconclusive: 3.55 µM [inhibitor, full curve, poor fit] |
| COc1cc(/C=C2/C(=O)N(c3ccccc3)N=C2C)ccc1OS(=O)(=O)c1ccccc1 |  | inconclusive: 35.5 µM [inhibitor, single point] |
| Oc1cccc2nc3ccccc3nc12 |  | inconclusive: 3.55 µM [inhibitor, full curve] |
| Cc1cc(N2CCCCC2)ccc1C=C1C(=O)N(C)C(=S)N(C)C1=O |  | inconclusive: 17.8 µM [activator, partial curve] |
| COc1ccccc1-n1c(-c2ccc(C)cc2)nc2ccccc2c1=O |  | inactive |
| COc1cc(/C=C/[N+](=O)[O-])ccc1OC(=O)c1cccnc1 |  | active: 6.31 µM |
| S=C=Nc1ccccn1 |  | active: 5.01 µM |
| COC(=O)c1ccccc1-n1c(C)nc2ccccc2c1=O |  | inconclusive: 35.5 µM [activator, single point] |
| CCCCCCCSc1cc(OC)c(CCN(C)C)cc1OC |  | inconclusive: 31.6 µM [inhibitor, single point] |
| O=C1NC(=O)N(Cc2cccs2)C(=O)/C1=C/c1ccc(N2CCOCC2)cc1 |  | inconclusive: 17.8 µM [activator, partial curve] |
| CC(C)(C)OC(=O)N1CC[C@H]1COc1cnc[c]([Sn]([CH3])([CH3])[CH3])c1 |  | inconclusive: 3.98 µM [activator, single point] |
| C/C=C1\C[N@@+]2(C)CC[C@@]34C(=C(C=O)[C@H]1C[C@H]32)Nc1ccccc14 |  | inactive |
| CCCCCCOC(=O)c1ccccc1N |  | inconclusive: 14.1 µM [activator, single point] |
| CCn1cc(CN(C)S(=O)(=O)c2ccc3ccccc3c2)c(C)n1 |  | inconclusive: 5.62 µM [activator, single point] |
| CC1(C)CN=C(Nc2ccc(F)c(Cl)c2)S1 |  | inconclusive: 11.2 µM [inhibitor, partial curve] |
| Nc1cc(Cl)ccc1O |  | inactive |
| CC(C)(C)c1cc([N+](=O)[O-])cc(C(C)(C)C)c1O |  | active: 14.1 µM |
| O=c1[nH]c(=O)n(Cl)c(=O)n1Cl | inactive: -13.4% [at 10 µM] |  |
| CC(=NCc1cccnc1)c1c(O)n(-c2ccc(C)cc2)c(=O)[nH]c1=O |  | inconclusive: 11.2 µM [inhibitor, partial curve, poor fit] |
| CCN1C[C@]2(C)CC[C@H](O)[C@@]34[C@@H]5CC6[C@@H](OC)C[C@@](O)([C@@H]5[C@@H]6O)[C@H](C[C@@H]23)[C@H]14 |  | inactive |

Look-ups from the results shown.
Potency, Cc1cc(CN(C)C)c(OC(=O)N(C)C)cc1C reads inconclusive: 5.62 µM [inhibitor, single point]
Potency, CCn1cc(CN(C)S(=O)(=O)c2ccc3ccccc3c2)c(C)n1 reads inconclusive: 5.62 µM [activator, single point]
Potency, Cc1cc(N2CCCCC2)ccc1C=C1C(=O)N(C)C(=S)N(C)C1=O reads inconclusive: 17.8 µM [activator, partial curve]
